Some of the results follow. Shown are side measurements of this screen, not its main read-out; they come without a call. Most of these compounds were active or inconclusive in the main read-out, so they are no random draw. Potencies come from curve fits of mixed quality, noted in brackets.
Assay: qHTS Assay for Identifying the Cell-Membrane Permeable IMPase Inhibitors
Details: CHO-M1 cells, IP1 accumulation, HTRF TR-FRET ratio; measured here: donor channel 620 nm AC50

| Compound | AC50 |
| --- | --- |
| CS(=O)(=O)N(Cc1ccccc1)c1ccc(C(=O)Nc2ccc(Cl)cc2)cc1 | 10 nM [falling, full curve] |
| COc1ccc(NC(=O)CSc2nnc(-c3ccccc3C)n2N)cc1 | 79.4 nM [rising, full curve, poor fit] |
| CC1(C)CC(=O)NC=C(c2ccccc2)C1 | 31600 nM [falling, single point] |
| Cc1ccc(S(=O)(=O)c2cc3cc(Br)ccc3oc2=O)cc1 | 5620 nM [rising, single point] |
| C1CCC2(CC1)OCC1(CO2)COC2(CCCCC2)OC1 | 355 nM [falling, partial curve, poor fit] |
| COC(=O)CNC(=O)c1c(C)cc(=O)oc1C | 31600 nM [falling, single point] |
| Cc1ccc(NC(=O)CSC2=C(C#N)C(c3ccc4c(c3)OCO4)C3=C(CCCC3=O)N2)c(C)c1 (stereo unspecified) | 3.98 nM [rising, full curve, poor fit] |
| O=c1[nH]cnc2c1oc1ccccc12 | 63.1 nM [rising, full curve, poor fit] |
| COCCN(C(=O)COc1ccc(Cl)cc1)c1nnc(-c2cccnc2)s1 | 7080 nM [rising, partial curve] |
| O=C1NC(NS(=O)(=O)c2ccccc2)(C(F)(F)F)C(=O)N1Cc1cccnc1 (stereo unspecified) | 3980 nM [rising, full curve] |
| CCOC(=O)c1ccc2c(c1)nc(SC/C(O)=C(\C#N)c1nc3ccccc3[nH]1)n2CC | 316 nM [falling, full curve] |
| CCCn1c(CN(Cc2ccccc2)Cc2ccccc2)nc2c1c(=O)n(C)c(=O)n2C | 15800 nM [rising, single point] |
| CCn1c(SCC(=O)Nc2sc(C)c(C)c2C#N)nnc1C(C)C | 15.8 nM [falling, full curve, poor fit] |
| CCOc1ccc(S(=O)(=O)N(CC(=O)Nc2ccc(OC)cc2OC)c2ccccc2)cc1 | 35500 nM [falling, single point] |
| O=C(Nc1cccc(Cl)c1)N1CCN(Cc2ccccc2)CC1 | 2510 nM [falling, partial curve, poor fit] |
| Cc1cc(OCC(O)CN2CCN(C)CC2)ccc1C(C)C (stereo unspecified) | 251 nM [falling, full curve, poor fit] |
| CCOC(=O)c1nn(-c2ccccc2F)c(C)c1C(C)=O | 25100 nM [rising, single point] |
| COc1cnn(-c2ccc(C)cc2)c(=O)c1SCc1ccccc1 | 10000 nM [rising, partial curve] |
| Cc1ccccc1-c1n[nH]c(=S)o1 | 12600 nM [rising, partial curve] |
| CCOC(=O)c1ccc(N2C(=O)C(O)=C(C(C)=O)C2c2ccccc2)cc1 (stereo unspecified) | 2000 nM [rising, partial curve] |
| CCN(CC)S(=O)(=O)c1cccc(-c2nnc(SCCCC(=O)c3ccccc3)o2)c1 | 794 nM [rising, full curve, poor fit] |
| Cc1ccc(N=c2oc3cc(O)ccc3cc2C(N)=O)cc1 | 158 nM [falling, full curve, poor fit] |

| Compound | AC50 |
| --- | --- |
| Clc1ccc(C2=Nn3c(nnc3-c3n[nH]c4c3CCC4)SC2)cc1Cl | 794 nM [falling, full curve] |
| COc1ccc(-c2cc(C(F)F)n3ncc(C(=O)NCC4CCCO4)c3n2)cc1 (stereo unspecified) | 31600 nM [rising, single point] |
| COc1ccc(Nc2nc3ccccc3n3cnnc23)cc1 | 20000 nM [falling, partial curve] |
| CCc1cc2c(SCC(=O)C(C#N)=C3N(C)c4ccccc4N3C)ncnc2s1 | 15800 nM [rising, single point] |
| COc1ccccc1N1CCN(C(=O)Oc2ccccc2)CC1 | 12600 nM [falling, partial curve, poor fit] |
| CCc1ccc(-c2nc(NC(=O)c3ccc(OCC(=O)Nc4ccc(F)cc4)c(OC)c3)sc2C)cc1 | 28200 nM [rising, single point] |
| CSc1ccc(S(=O)(=O)N2CCCC2)cc1 | 200 nM [falling, partial curve, poor fit] |
| Cc1nnc(C)n1/N=C/c1ccccn1 | 20000 nM [rising, single point] |
| CC(C)CCOC(=O)C1[C@H]2C(=O)N(Cc3cccs3)C[C@]23C=C[C@H]1O3 (stereo partly specified) | 398 nM [rising, full curve, poor fit] |
| O=C(CC1c2ccccc2Oc2ccccc21)NCc1ccco1 | 794 nM [rising, full curve] |
| Cc1cccc2nc(CSCc3ccco3)cn12 | 3980 nM [falling, single point] |
| CCN1CCN(c2nc(-c3cccs3)nc3ccccc23)CC1 | 50.1 nM [falling, partial curve] |
| O=C(O)c1ccc(-n2nc(C(F)(F)F)c3c2-c2ccoc2CC3)cc1 | 158 nM [falling, single point] |
| Cc1cc(C)nc(-n2nc(C)c3c(=O)[nH]c(C(F)(F)F)nc32)n1 | 794 nM [falling, partial curve, poor fit] |
| Cc1cc(NC(=O)COc2cccc3cccnc23)no1 | 200 nM [falling, full curve] |
| Cc1ncc(CSc2nnnn2-c2ccccc2)c(N)n1 | 5620 nM [falling, single point] |
| Cc1c(Cl)cccc1NC(=O)Cn1cc(C(=O)C2CCCCC2)c2ccccc21 | 5.01 nM [falling, full curve, poor fit] |
| Cc1ccc(NC(=O)c2ccc(OC(=O)COc3ccc(Cl)c(C)c3)cc2)cc1 | 89.1 nM [rising, full curve, poor fit] |
| COc1ccc(OC)c(Nc2nc(-c3sc(NC(=O)CC(C)C)nc3C)cs2)c1 | 3160 nM [falling, partial curve] |
| CC(=O)Nc1ccc(S(=O)(=O)N2CCN(C(=O)Cc3ccccc3)CC2)cc1 | 501 nM [falling, full curve] |
| CCOCCCNC(=O)CN1C(=O)CSc2cc(S(=O)(=O)N3CCCCCC3)ccc21 | 5010 nM [rising, partial curve] |
| CCOC(=O)C1CCCN(S(=O)(=O)c2ccc3c(c2)CCN3C(=O)CC)C1 (stereo unspecified) | 14100 nM [falling, partial curve, poor fit] |

14 entries already listed, ordered by length of the SMILES, high to low:

| Compound | AC50 |
| --- | --- |
| CCc1ccc(-c2nc(NC(=O)c3ccc(OCC(=O)Nc4ccc(F)cc4)c(OC)c3)sc2C)cc1 | 28200 nM [rising, single point] |
| CC(C)CCOC(=O)C1[C@H]2C(=O)N(Cc3cccs3)C[C@]23C=C[C@H]1O3 (stereo partly specified) | 398 nM [rising, full curve, poor fit] |
| CCOCCCNC(=O)CN1C(=O)CSc2cc(S(=O)(=O)N3CCCCCC3)ccc21 | 5010 nM [rising, partial curve] |
| Cc1ccc(NC(=O)c2ccc(OC(=O)COc3ccc(Cl)c(C)c3)cc2)cc1 | 89.1 nM [rising, full curve, poor fit] |
| COc1ccc(OC)c(Nc2nc(-c3sc(NC(=O)CC(C)C)nc3C)cs2)c1 | 3160 nM [falling, partial curve] |
| Cc1cc(C)nc(-n2nc(C)c3c(=O)[nH]c(C(F)(F)F)nc32)n1 | 794 nM [falling, partial curve, poor fit] |
| Clc1ccc(C2=Nn3c(nnc3-c3n[nH]c4c3CCC4)SC2)cc1Cl | 794 nM [falling, full curve] |
| CCN1CCN(c2nc(-c3cccs3)nc3ccccc23)CC1 | 50.1 nM [falling, partial curve] |
| O=C(CC1c2ccccc2Oc2ccccc21)NCc1ccco1 | 794 nM [rising, full curve] |
| COc1ccccc1N1CCN(C(=O)Oc2ccccc2)CC1 | 12600 nM [falling, partial curve, poor fit] |
| Cc1cc(NC(=O)COc2cccc3cccnc23)no1 | 200 nM [falling, full curve] |
| CSc1ccc(S(=O)(=O)N2CCCC2)cc1 | 200 nM [falling, partial curve, poor fit] |
| Cc1cccc2nc(CSCc3ccco3)cn12 | 3980 nM [falling, single point] |
| Cc1nnc(C)n1/N=C/c1ccccn1 | 20000 nM [rising, single point] |

2 records picked at random from the list so far, as already listed:

| Compound | AC50 |
| --- | --- |
| Cc1ccc(NC(=O)c2ccc(OC(=O)COc3ccc(Cl)c(C)c3)cc2)cc1 | 89.1 nM [rising, full curve, poor fit] |
| CC(C)CCOC(=O)C1[C@H]2C(=O)N(Cc3cccs3)C[C@]23C=C[C@H]1O3 (stereo partly specified) | 398 nM [rising, full curve, poor fit] |

Remaining list, next part.

| Compound | AC50 |
| --- | --- |
| NC(=O)CSc1nnc(-c2cccnc2)n1CCc1ccccc1 | 31600 nM [rising, single point] |
| Cc1cccc(CSC2=NCCN2C(=O)C2CC2)c1 | 5.01 nM [falling, full curve, poor fit] |
| COc1ccc(-c2nnc(SCC(=O)c3cccs3)o2)c(OC)c1 | 2000 nM [falling, full curve, poor fit] |
| CCC(C)Nc1nc(SC(C(C)=O)C(C)=O)nc(N(C)C)n1 (stereo unspecified) | 12600 nM [rising, partial curve] |
| COC(=O)c1cccc(S(=O)(=O)N2CCC(NC(=O)NC34CC5CC(CC(C5)C3)C4)CC2)c1 | 39.8 nM [rising, full curve, poor fit] |
| CCCCCSc1nnc2c(n1)OC(CC)Nc1ccc(Br)cc1-2 (stereo unspecified) | 11200 nM [falling, partial curve, poor fit] |
| CCOC(=O)N1CCN(C(=O)Nc2sc3nc4n(c(=O)c3c2C)CCC(C)CC4)CC1 (stereo unspecified) | 31.6 nM [falling, full curve, poor fit] |
| O=C(c1ccc(Cl)cc1)c1ccc(CN2C(=O)c3ccccc3C2=O)o1 | 15.8 nM [rising, full curve, poor fit] |
| Cc1ccc(OC(=O)c2cccc(C(=O)Oc3ccc(C)cc3)n2)cc1 | 200 nM [falling, full curve, poor fit] |
| CCn1c(SCC(=O)Nc2sc3c(c2C#N)CCCC3)nnc1-c1ccncc1 | 1000 nM [falling, full curve] |
| C=CCSc1nnc(NC(=O)CSc2ccccn2)s1 | 4.47 nM [falling, full curve, poor fit] |
| O=C(CSc1nc2c(cnn2-c2ccc(F)cc2)c(=O)[nH]1)N1CCCCCC1 | 224 nM [falling, full curve, poor fit] |
| CSc1ncc(Cl)c(C(=O)Nc2ccc(S(=O)(=O)N3CCOCC3)cc2)n1 | 2000 nM [falling, single point] |
| C/C(Cl)=C/Cn1c(SC(C)C)nc2c1c(=O)[nH]c(=O)n2C | 50.1 nM [falling, full curve, poor fit] |
| O=C(CCNS(=O)(=O)c1ccc(Br)cc1)NCc1ccc2c(c1)OCO2 | 2510 nM [rising, full curve] |
| CC(C)(C)c1csc(NC(=O)c2ccc(Cl)s2)n1 | 5010 nM [falling, full curve] |
| CCCCNS(=O)(=O)c1ccc(NC(=O)c2c(-c3ccccc3)noc2C)cc1 | 3550 nM [falling, full curve, poor fit] |
| COc1ccc(Cl)cc1NC(=O)CSc1nc(-c2cccs2)cc(C(F)(F)F)n1 | 31600 nM [rising, single point] |
| O=C(Nc1ccc2oc(-c3cccnc3)nc2c1)c1ccccc1F | 35500 nM [rising, single point] |
| COc1ccc(CCNC(=O)c2ccc(NS(=O)(=O)c3c(C)noc3C)cc2)cc1OC | 5.01 nM [rising, full curve] |
| Cc1ccc(-c2c(C#N)c(N)n(-c3ccc(C)cc3)c(=O)c2C#N)cc1 | 5010 nM [falling, partial curve] |
| Cc1ccc(S(=O)(=O)N(CC(O)Cn2c3ccccc3c3ccccc32)c2cccc(C(=O)N(C)C)c2)cc1 (stereo unspecified) | 7080 nM [falling, full curve, poor fit] |
